# Data source: PubChem BioAssay AID1259405 (NCATS, 2018)
# Screen: 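Mouse-designed siRNAs used to find CHO productivity engineering targets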 (primary screen)
# System: Chinese hamster CHO-K1 ovary cells with stable secreted eGFP expression
# Reagents: single siRNA against mouse genes, 0.8 pmol siRNA per well (2 µl of 400 nM stock)
# Timing: 3 days
# Read-out: 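Per-well intracellular GFP measured by laser scanning cytometry, plus viability from ATP luminescence, each relative to plate median of non-targeting control wells, in %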
# Reading the numbers: GFP, % of control: higher = more GFP per well, higher productivity; viability (ATP), % of control: higher = more viable cells (more ATP)
# Rule for the call: 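a knock-down is called active if GFP reaches 120% or more of non-targeting control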
# In all, the deposit lists about 50,000 reagents; this is an unselected part. In the full data, about 4,000 (8%) got an active call. 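Mouse siRNA library applied to hamster cells; one well for each siRNA.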 Reagents against one gene are numbered here.
Target gene,reagent,"GFP, % of control","viability (ATP), % of control",call
Gja10,1,96.1,33.2,inactive
Gja10,2,72.1,60.8,inactive
Gja10,3,84.2,64.7,inactive
Zfp874a,1,83.8,63.8,inactive
Zfp874a,2,60,52.4,inactive
Zfp874a,3,79.6,93.6,inactive
Arhgdig,1,58.9,69,inactive
Arhgdig,2,122,121,active
Arhgdig,3,83.6,101,inactive
Fabp4,1,83.8,61.9,inactive
Fabp4,2,80.9,69.9,inactive
Fabp4,3,67.6,71.5,inactive
Scrg1,1,78.7,60,inactive
Scrg1,2,52.5,33.2,inactive
Scrg1,3,99.1,97.7,inactive
Mt3,1,25.3,28.9,inactive
Mt3,2,71.3,105,inactive
Mt3,3,61.1,81,inactive
Or2t46,1,73.2,54.6,inactive
Or2t46,2,62.8,58.2,inactive
Or2t46,3,54.8,82.4,inactive
2210016L21Rik,1,95.2,77.7,inactive
2210016L21Rik,2,65.1,73.9,inactive
2210016L21Rik,3,98.5,97.4,inactive
Sorbs1,1,88.4,109,inactive
Sorbs1,2,121,72.7,active
Sorbs1,3,46,39,inactive
Erc2,1,98.2,97.5,inactive
Erc2,2,73.7,59.9,inactive
Erc2,3,89.4,87.9,inactive
Slc2a13,1,69.3,76.7,inactive
Slc2a13,2,80.5,55.3,inactive
Slc2a13,3,76.7,62.6,inactive
Gucy2f,1,90.8,106,inactive
Gucy2f,2,82.4,89.3,inactive
Gucy2f,3,65.4,69.7,inactive
Rpap3,1,36.2,34.2,inactive
Rpap3,2,81.2,79.6,inactive
Rpap3,3,109,78.5,inactive
Or6c5,1,103,97.5,inactive
Or6c5,2,90.5,73.6,inactive
Or6c5,3,100,104,inactive
H2-Ab1,1,114,58.8,inactive
H2-Ab1,2,141,110,active
H2-Ab1,3,104,70.7,inactive
Omd,1,161,133,active
Omd,2,94.2,80.9,inactive
Omd,3,88.1,89,inactive
Grk1,1,122,80.8,active
Postn,1,0,14.6,inactive
Postn,2,108,87.7,inactive
Ninj2,1,122,82.6,active
Ninj2,2,114,58.7,inactive
Gpm6b,1,66.6,79.8,inactive
Gpm6b,2,64.5,88.7,inactive
Gpm6b,3,81.2,85.2,inactive
Blcap,1,45.6,81.7,inactive
Blcap,2,86.8,66.9,inactive
Blcap,3,136,134,active
Nup160,1,60.4,58.3,inactive
Nup160,2,62.6,79,inactive
Nup160,3,64,55.2,inactive
Ccn1,1,63.3,102,inactive
Ccn1,2,59.5,92.8,inactive
Ccn1,3,69.5,87.8,inactive
Ttc3,1,61.2,70.3,inactive
Ttc3,2,60.8,49.2,inactive
Ttc3,3,99.8,78.1,inactive
Sult1d1,1,106,113,inactive
Sult1d1,2,88.1,86.6,inactive
Sult1d1,3,52.2,62.1,inactive
Ccl1,1,49.1,58.1,inactive
Ccl1,2,87.7,62.5,inactive
Ccl1,3,92,56,inactive
Wtip,1,71.1,90.7,inactive
Wtip,2,61.7,62.1,inactive
Ms4a6c,1,87.6,73.8,inactive
Ms4a6c,2,73.4,72.8,inactive
Ms4a6c,3,57.4,90.8,inactive
Tpt1,1,70,93.7,inactive
Tpt1,2,80.8,89.4,inactive
Slc7a11,1,92.9,64,inactive
Slc7a11,2,62.2,73.1,inactive
Slc7a11,3,88.3,77.1,inactive

Already shown: an excerpt of the list.
Target gene,reagent,"GFP, % of control","viability (ATP), % of control",call
Mt3,2,71.3,105,inactive
Mt3,3,61.1,81,inactive
Or2t46,1,73.2,54.6,inactive
Or2t46,2,62.8,58.2,inactive
Or2t46,3,54.8,82.4,inactive
2210016L21Rik,1,95.2,77.7,inactive
2210016L21Rik,2,65.1,73.9,inactive
2210016L21Rik,3,98.5,97.4,inactive
Sorbs1,1,88.4,109,inactive
Sorbs1,2,121,72.7,active
Sorbs1,3,46,39,inactive
